In patent US8686146B2, “Azaindenoisoquinoline topoisomerase I inhibitors” (Purdue Research Foundation, priority 2012, dated 2014):
At least one structure is not confirmed: it was looked up by name or label, or the drawing left a doubt.

Biological target: T1, human recombinant Top1 (Homo sapiens, UniProt P11387)
T1 construct: made in house
T1 sequence (P11387 1-765): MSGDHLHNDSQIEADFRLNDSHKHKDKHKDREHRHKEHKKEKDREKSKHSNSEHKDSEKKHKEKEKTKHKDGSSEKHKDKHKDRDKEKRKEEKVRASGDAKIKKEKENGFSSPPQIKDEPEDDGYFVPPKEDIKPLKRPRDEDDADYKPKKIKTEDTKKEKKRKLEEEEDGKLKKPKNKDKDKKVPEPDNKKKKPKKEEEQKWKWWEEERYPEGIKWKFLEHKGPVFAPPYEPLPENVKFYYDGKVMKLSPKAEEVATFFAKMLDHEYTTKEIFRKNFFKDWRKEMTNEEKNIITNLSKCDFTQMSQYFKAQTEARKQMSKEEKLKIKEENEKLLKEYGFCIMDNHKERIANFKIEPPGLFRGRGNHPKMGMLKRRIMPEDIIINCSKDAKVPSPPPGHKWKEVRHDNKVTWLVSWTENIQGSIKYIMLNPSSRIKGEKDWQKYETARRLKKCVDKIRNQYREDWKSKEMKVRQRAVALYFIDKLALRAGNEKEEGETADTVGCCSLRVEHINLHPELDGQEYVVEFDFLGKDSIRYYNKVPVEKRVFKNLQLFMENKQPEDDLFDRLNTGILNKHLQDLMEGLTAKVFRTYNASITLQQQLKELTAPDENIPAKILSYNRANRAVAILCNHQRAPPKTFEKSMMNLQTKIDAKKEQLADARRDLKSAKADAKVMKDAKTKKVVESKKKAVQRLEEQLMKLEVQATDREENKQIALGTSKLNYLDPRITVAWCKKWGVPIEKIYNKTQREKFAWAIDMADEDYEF
Assay: Top1-mediated DNA cleavage assay
Type: biochemical
Set-up: key to the marks not given beside the values
Conditions: semiquantitative, relative to compounds 1 and 2; Table 1
Protocol: Unincorporated [^32P]dGTP was removed using mini Quick […] columns (Roche, Indianapolis, Ind.), and the eluate containing the […] DNA substrate was collected. […] Aliquots of each reaction mixture were subjected to 20% denaturing PAGE. […] The DNA fragments were separated on a denaturing gel. […] All of the target compounds were tested for induction of DNA damage in Top1-mediated DNA cleavage assays, as described above.

In the case of `CN(C)CCCn1c2c(c3ccccc3c1=O)C(=O)c1ccccc1-2` [Compound 33, reference compound], the “Top1 Cleavage” value is reported as “+++”.
